# Hit rate of the full screen: of about 220,000 compounds, about 770 (0.35%) were called active. The shares of active, inactive and inconclusive entries below differ from those in the screen. Rule as the data show it: active = binding response below about 49% or above about 150%; inconclusive = no clear call, values can overlap the other calls; inactive = in between.
# Chains of the proteins cited; added tags and fusions are not shown.
# UniProt P09471, whole entry, looked up: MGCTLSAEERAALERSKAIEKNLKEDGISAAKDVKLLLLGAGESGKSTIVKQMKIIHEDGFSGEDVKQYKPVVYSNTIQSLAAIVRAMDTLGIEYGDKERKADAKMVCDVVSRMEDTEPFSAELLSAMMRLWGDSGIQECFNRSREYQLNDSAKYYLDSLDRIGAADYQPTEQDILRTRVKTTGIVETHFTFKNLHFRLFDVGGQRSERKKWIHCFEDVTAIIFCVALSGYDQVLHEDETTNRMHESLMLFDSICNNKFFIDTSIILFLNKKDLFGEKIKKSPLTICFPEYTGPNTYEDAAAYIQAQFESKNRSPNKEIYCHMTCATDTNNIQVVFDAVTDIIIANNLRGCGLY
# Biological target: Guanine nucleotide-binding protein G(o) subunit alpha (Homo sapiens) (UniProt P09471)
# Experiment: RGS7-Galphao binding modulators, primary screen, biochemical, multiplexed bead flow cytometry (AID 1439);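 also: fluorescent Galphao held in activated GDP-AlF4 state binding bead-coupled RGS7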
# Settings: at 10 µM, actives lie on both sides
row,Structure (SMILES),binding response (% of control)
1,O=c1[nH]c2ccccc2nc1C(F)(F)F,inconclusive: 37.6%
2,COC(=O)[C@@H]1[C@@H](C)N(Cc2ccccc2)C(=O)N[C@H]1c1cccc(C(F)(F)F)c1,inconclusive: 88.3%
3,Cc1ccc(S(=O)(=O)N(C)c2ccc(OC(=O)c3ccc(=O)[nH]c3)cc2)cc1,inconclusive: 101%
4,Cc1ccc(S(=O)(=O)N(C)C)cc1NC(=S)N1CCN(Cc2ccc3c(c2)OCO3)CC1,inconclusive: 93.6%
5,CCOC(=O)/C(=N/Nc1ccccc1OC)N1CCCc2ccccc21,inconclusive: 81.3%
6,COc1ccc(N2C(=O)CC(NNC(=O)c3cccnc3)C2=O)cc1 (stereo not given),inconclusive: 85.6%
7,CCc1ccc[n+](-c2nc([O-])sc2C=O)c1,inconclusive: 102%
8,Clc1ccc(-n2nnnc2-c2ccno2)cc1,inconclusive: 59.5%
9,Cc1cc(C(=O)NNC(=O)c2ccc(Cl)cc2)no1,inconclusive: 96.7%
10,C=CCN1C(=O)C2(NNc3ccccc3O2)c2ccccc21 (stereo not given),inactive: 98.8%
11,CCCCn1c(NCc2cccs2)nc2ccccc21,inconclusive: 94.4%
12,C/C(=N\OCc1cccc(C(=O)O)c1)c1ccc(Cl)cc1,inconclusive: 74.2%
13,N#C/C(=C\c1cccs1)C(=O)c1ccccc1,inconclusive: 92.8%
14,COC(=O)c1ccccc1NC(=O)c1nc2nc(C)cc(C)n2n1,inactive: 142%
15,CCOC(=O)NC(=O)/C(C=Nc1ccc(Cl)cc1)=C(\C)O,inconclusive: 107%
16,CCOc1ccc(N2CC(C(=O)Nc3cccc(S(=O)(=O)NC4=NCCC4)c3)CC2=O)cc1 (stereo not given),inconclusive: 108%
17,CCCCc1ccc(NC(=O)CC(C)C)cc1,inactive: 102%
18,CCOc1ccc(/C=N/NC(=S)NC2CC3C=CC2C3)cc1 (stereo not given),inconclusive: 130%
19,CCOc1cc(NC(=S)NCC2CCCO2)c(OCC)cc1NC(=O)c1ccccc1F (stereo not given),inconclusive: 98.5%
20,CCNS(=O)(=O)c1ccc(NC(=O)Nc2cc(C)ccc2OC)cc1,inconclusive: 81.2%
21,Cc1ccc(-c2cc(C(F)F)n3ncc(C(=O)NN4CCCCC4)c3n2)cc1,inconclusive: 110%
22,Cc1cccc(N(CC(=O)N/N=C/c2cc([N+](=O)[O-])ccc2Cl)S(C)(=O)=O)c1C,inactive: 105%
23,CC1(C)CC(=O)C(N=Nc2ccc(Br)cc2)=C(O)C1,inconclusive: 55%

row,Structure (SMILES),binding response (% of control)
1,CCOP(=O)(OCC)c1nc(-c2ccc(F)cc2)oc1NCc1ccccc1,inconclusive: 82.7%
2,COc1cccc(/C=N/NC(=O)CNC(=O)c2cccs2)c1O,inconclusive: 73.5%
3,CC(=O)N1N=C(c2ccc3ccccc3c2)OC12CCCC2,inconclusive: 58.7%
4,COc1ccc(Cl)cc1NC(=O)NCC1CCN(C(=O)OC(C)(C)C)CC1,inconclusive: 80.4%
5,CCCCN(C(=O)CSc1nncn1-c1ccccc1OC)c1c(N)n(Cc2ccccc2)c(=O)[nH]c1=O,inconclusive: 97%
6,COc1cc(C2SCC(=O)N2c2c(C)n(C)n(-c3ccccc3)c2=O)ccc1O (stereo not given),inconclusive: 82.4%
7,CCOc1ccc(CCNC(=O)CCS(=O)(=O)c2ccc(OC)cc2)cc1OCC,inactive: 98.5%
8,CN(Cc1ccccc1)S(=O)(=O)c1cn(C)cn1,inconclusive: 148%
9,CCc1c(C#N)sc(C(N)=O)c1CC,inconclusive: 147%
10,Cc1sc2c(c1C)C(=O)/C(=C\Nc1ccncc1)S(=O)(=O)N2C,inconclusive: 76.4%
11,O=c1[nH]c2ccccc2c2ccccc12,inconclusive: 87%
12,COc1cc2c(cc1OC)C(c1ccccc1)N(C(=O)CSCC(=O)O)CC2 (stereo not given),inconclusive: 106%
13,CC(C)(C)c1ccc(C(=O)Nc2ccc(CN3CCS(=O)(=O)CC3)cc2)cc1,inconclusive: 62.9%
14,COc1ccc(NC(=O)COC(=O)c2ccc(Cl)c(S(N)(=O)=O)c2)c([N+](=O)[O-])c1,inconclusive: 93.8%
15,CC1(C)Cc2c(C#N)c(SCC(=O)c3ccccc3)nc(N3CCOCC3)c2CS1,inactive: 127%
16,COc1cc(/C=N/NC(=O)c2sc3ccccc3c2Cl)ccc1OC(=O)c1ccc([N+](=O)[O-])cc1,inconclusive: 113%
17,COC(=O)C1=C(N)Oc2cc(C)[nH]c(=O)c2C1c1cccnc1 (stereo not given),inactive: 99.1%
18,O=C(Nc1cccc(Cl)c1)Nc1ccccc1C(=O)O,inconclusive: 119%
19,C/C(=N\Nc1ccc(S(N)(=O)=O)cc1[N+](=O)[O-])c1ccccc1O,inconclusive: 108%
20,COc1ccc(-n2c(SCC(=O)Nc3cc(C(=O)O)ccc3C)nc3ccccc3c2=O)cc1Cl,inconclusive: 66.9%
21,CCOC(=O)C(=CNc1cc(C)ccc1[N+](=O)[O-])C(=O)OCC,inconclusive: 92.7%
22,COc1ccc(C2CC(c3ccccc3)Nc3ncnn32)cc1 (stereo not given),inactive: 93.2%
23,CCOc1ccc2c(c1)nc(NCCCO)n2Cc1ccccc1,inconclusive: 110%

# In the list so far, these have an aryl methoxy group.
row,Structure (SMILES),binding response (% of control)
5,CCOC(=O)/C(=N/Nc1ccccc1OC)N1CCCc2ccccc21,inconclusive: 81.3%
6,COc1ccc(N2C(=O)CC(NNC(=O)c3cccnc3)C2=O)cc1 (stereo not given),inconclusive: 85.6%
20,CCNS(=O)(=O)c1ccc(NC(=O)Nc2cc(C)ccc2OC)cc1,inconclusive: 81.2%
2,COc1cccc(/C=N/NC(=O)CNC(=O)c2cccs2)c1O,inconclusive: 73.5%
4,COc1ccc(Cl)cc1NC(=O)NCC1CCN(C(=O)OC(C)(C)C)CC1,inconclusive: 80.4%
5,CCCCN(C(=O)CSc1nncn1-c1ccccc1OC)c1c(N)n(Cc2ccccc2)c(=O)[nH]c1=O,inconclusive: 97%
6,COc1cc(C2SCC(=O)N2c2c(C)n(C)n(-c3ccccc3)c2=O)ccc1O (stereo not given),inconclusive: 82.4%
7,CCOc1ccc(CCNC(=O)CCS(=O)(=O)c2ccc(OC)cc2)cc1OCC,inactive: 98.5%
12,COc1cc2c(cc1OC)C(c1ccccc1)N(C(=O)CSCC(=O)O)CC2 (stereo not given),inconclusive: 106%
14,COc1ccc(NC(=O)COC(=O)c2ccc(Cl)c(S(N)(=O)=O)c2)c([N+](=O)[O-])c1,inconclusive: 93.8%
16,COc1cc(/C=N/NC(=O)c2sc3ccccc3c2Cl)ccc1OC(=O)c1ccc([N+](=O)[O-])cc1,inconclusive: 113%
20,COc1ccc(-n2c(SCC(=O)Nc3cc(C(=O)O)ccc3C)nc3ccccc3c2=O)cc1Cl,inconclusive: 66.9%
22,COc1ccc(C2CC(c3ccccc3)Nc3ncnn32)cc1 (stereo not given),inactive: 93.2%

# Continued.

row,Structure (SMILES),binding response (% of control)
1,CCc1c(C)c(C#N)c2nc3ccccc3n2c1NCc1ccccn1,inconclusive: 99%
2,COCc1cc(=O)n2[nH]c(C(C)(C)C)cc2n1,inconclusive: 82%
3,Clc1cccc(Cl)c1CSc1nnc(-c2ccncc2)s1,inconclusive: 228%
4,CCOC(=O)C1CCN(c2c(C(=O)c3ccccc3)cnc3ccc(Cl)cc23)CC1,inconclusive: 105%
5,O=c1[nH]c(=O)n(Cc2ccccc2)c2c1C(C(F)(F)F)(C(F)(F)F)N=C(c1ccco1)N2,active: 45.4%
6,Cc1nc2c(=O)n(-c3ccc(F)cc3F)nc(C)c2s1,inconclusive: 70.4%
7,CCc1nnc(NC(=O)CN2CCN(c3nc(-c4ccccc4)cs3)CC2)s1,inactive: 110%
8,CCN1CCN(CCCN(Cc2ccco2)C(=S)Nc2cc(Cl)ccc2C)CC1,inconclusive: 108%
9,Cc1ccc(NNC(=O)c2ccc(Cl)cc2)nn1,inconclusive: -58.9%
10,COc1ccc(C2(O)CN(c3ccccc3)C3=[N+]2CCS3)cc1OC (stereo not given),inconclusive: 93.5%
11,CCOC(=O)Nc1csnn1,inconclusive: 112%
12,CC1CC(Nc2ccccc2)c2ccccc2N1C(=O)c1ccco1 (stereo not given),inconclusive: 53.1%
13,C=CCn1c(SCC(=O)NC2CCCCC2)nc2ccccc2c1=O,inconclusive: 102%
14,O=C(/C(N=Nc1cccc([N+](=O)[O-])c1)=C(/O)c1ccc(Br)cc1)C(F)(F)F,inconclusive: 94.3%
15,C=CCn1c(=O)c(C(=O)Nc2ccccc2S(N)(=O)=O)c(O)c2ccccc21,inactive: 99.5%
16,CC(C)(C)OC(=O)N1CCC(CNC(=O)c2ccc(F)cc2F)CC1,inconclusive: 65.5%
17,Cc1csc(NC(=O)CSCC(=O)O)c1-c1nc2ccccc2s1,inconclusive: 129%
18,Cc1cc(NC(=O)Nc2cccc3ccccc23)no1,inconclusive: 107%
19,Cc1ccc(CCN2CC(C(=O)NCc3ccc4c(c3)OCO4)CC2=O)cc1 (stereo not given),inconclusive: 86.4%
20,Nc1cc(=O)[nH]c(SCC(=O)Nc2ccc([N+](=O)[O-])cc2)n1,inconclusive: 81.5%
21,Cn1c(=O)c2c(SCC(=O)Nc3nccs3)nc(C3CC3)nc2n(C)c1=O,inconclusive: 95%
22,CC1(C)CC2(CCO1)OC(=O)CC2C(=O)Nc1ccc(Br)cc1 (stereo not given),inconclusive: 146%
23,CCN1C(=O)C2(C(C(=O)c3cc4ccccc4o3)=C(O)C(=O)N2CCCN2CCOCC2)c2ccccc21 (stereo not given),inconclusive: 96.1%

row,Structure (SMILES),binding response (% of control)
1,Cc1ccc(/C=C2/N=C(c3ccccc3)NNC2=O)cc1,inconclusive: 40.7%
2,O=S(=O)(c1ccc(F)cc1)N1CCN(c2ncnc3c2cnn3-c2ccccc2)CC1,inactive: 122%
3,COc1ccc(CN(Cc2cccn2C)S(=O)(=O)c2cccc(C(F)(F)F)c2)cc1,inconclusive: 73.1%
4,Cc1[nH]c(=S)c(C#N)c(-c2ccccc2)c1C(=O)Nc1ccccc1,inconclusive: 116%
5,Cc1cc(N2CCCC2)c(F)cc1/C=C\[N+](=O)[O-],inconclusive: 90.8%
6,COc1ccc(/C=C/c2nnc(NC(=O)CSc3ccc(C)cc3)s2)cc1,inconclusive: 109%
7,COc1ccc(N(CCC(=O)O)S(=O)(=O)c2ccc(C)c(C)c2)cc1,inconclusive: 107%
8,Cc1ccc(-c2csc(NC(=O)CCNC(=O)c3ccco3)n2)cc1,inconclusive: 115%
9,CC1CCN(c2nnc(N3CCC(C)CC3)c3ccccc23)CC1,active: 11.7%
10,Cc1cnc(C(=O)NCc2ccc(Cl)cc2Cl)cn1,inconclusive: 111%
11,Cc1nn(Cc2cccc3ccccc23)c(C)c1NC(=O)c1cccnc1,inconclusive: 128%
12,COC(=O)Nc1ccc(S(=O)(=O)N2CCC(C(=O)NC3CCCCC3)CC2)cc1,inconclusive: 97.9%
13,O=c1n(-c2ccccc2)c(=O)n2n1CC(O)C2,inactive: 100%
14,COc1cc(NC(=S)NC(=O)c2ccc(C(C)(C)C)cc2)ccc1NC(=O)c1cccs1,inactive: 89.3%
15,Oc1cccc(Oc2ncc(C(F)(F)F)cc2Cl)c1,inactive: 97.6%
16,Cc1ccc(S(=O)(=O)CCC(=O)OCc2ccccc2F)cc1,inconclusive: 111%
17,O=C(NCCCn1ccnc1)/C(=C\c1cccs1)NC(=O)c1cccs1,inactive: 98.4%
18,COc1ccc(CN2C(=O)CSC2c2ccccn2)cc1 (stereo not given),inconclusive: 79%
19,COc1cc2oc(-c3ccc(O)cc3)cc(=O)c2c(OC)c1O,inconclusive: 114%
20,CSc1nc(N2CCN(C)CC2)c2c(c1C#N)CC(C)(C)OC2,inconclusive: 190%
21,Cc1noc(C)c1-c1nnc(-c2ccc(C(F)(F)F)cc2)o1,inconclusive: 97.5%

# A run of entries from further up:
row,Structure (SMILES),binding response (% of control)
4,Cc1[nH]c(=S)c(C#N)c(-c2ccccc2)c1C(=O)Nc1ccccc1,inconclusive: 116%
5,Cc1cc(N2CCCC2)c(F)cc1/C=C\[N+](=O)[O-],inconclusive: 90.8%

# — PubChem BioAssay AID1439 (NMMLSC, 2008)
